According to paper PMC3310817, “Liver X Receptors Regulate the Transcriptional Activity of the Glucocorticoid Receptor: Implications for the Carbohydrate Metabolism”:

How the values were obtained:
[1] = biological target: T1, glucocorticoid receptor (GR, nuclear extract of HeLa cells) (Homo sapiens) (UniProt P04150); experiment: EMSA; conditions: EMSA: 10 mM HEPES pH 8.0, 0.1 mM EDTA, 2 mM DTT, 50 mM NaCl, 5 mM MgCl2, 50 mM KCl, 4 mM spermidine, 4% Ficoll, 1 ug poly(dI-dC), preincubation 10 min 4 C, protein in an extract, label: 32P
T1 sequence (looked up, limits assumed): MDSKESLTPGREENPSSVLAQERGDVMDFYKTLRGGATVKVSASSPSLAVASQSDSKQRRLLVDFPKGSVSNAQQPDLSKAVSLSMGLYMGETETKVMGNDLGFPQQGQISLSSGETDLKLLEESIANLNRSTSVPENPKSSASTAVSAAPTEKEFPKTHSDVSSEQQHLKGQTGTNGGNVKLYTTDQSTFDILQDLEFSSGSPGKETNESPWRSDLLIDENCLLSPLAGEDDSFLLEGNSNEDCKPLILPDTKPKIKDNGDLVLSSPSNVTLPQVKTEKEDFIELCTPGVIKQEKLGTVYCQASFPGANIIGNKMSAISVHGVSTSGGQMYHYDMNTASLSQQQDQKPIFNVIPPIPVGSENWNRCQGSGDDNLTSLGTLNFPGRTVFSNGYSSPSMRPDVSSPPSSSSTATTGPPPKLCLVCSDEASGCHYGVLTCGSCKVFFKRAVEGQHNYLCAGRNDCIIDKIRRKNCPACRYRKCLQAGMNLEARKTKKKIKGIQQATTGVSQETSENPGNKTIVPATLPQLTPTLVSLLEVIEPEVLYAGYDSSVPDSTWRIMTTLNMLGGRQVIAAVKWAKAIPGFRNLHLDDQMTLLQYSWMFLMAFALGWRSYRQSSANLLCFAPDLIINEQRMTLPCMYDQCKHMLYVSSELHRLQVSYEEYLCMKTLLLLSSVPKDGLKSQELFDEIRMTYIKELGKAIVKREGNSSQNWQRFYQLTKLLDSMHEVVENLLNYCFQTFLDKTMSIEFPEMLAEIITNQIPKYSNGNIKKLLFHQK

[2] = biological target: T1, glucocorticoid receptor (GR, nuclear extract of HeLa cells) (Homo sapiens); experiment: competition with a labelled probe; conditions: dexamethasone, EMSA: 10 mM HEPES pH 8.0, 0.1 mM EDTA, 2 mM DTT, 50 mM NaCl, 5 mM MgCl2, 50 mM KCl, 4 mM spermidine, 4% Ficoll, 1 ug poly(dI-dC), preincubation 10 min 4 C, protein in an extract
[3] = biological target: T1, glucocorticoid receptor (GR, nuclear extract of HeLa cells) (Homo sapiens); experiment: EMSA supershift; conditions: dexamethasone, complex A; EMSA: 10 mM HEPES pH 8.0, 0.1 mM EDTA, 2 mM DTT, 50 mM NaCl, 5 mM MgCl2, 50 mM KCl, 4 mM spermidine, 4% Ficoll, 1 ug poly(dI-dC); preincubation 10 min 4 C; protein in an extract; label: 32P

GCACTGTCAAGCAGTGTGCCCAAGTTAATAATT (double strand) [G6Pase GRE wt]
binding result ([1]; dexamethasone + recombinant LXRα/RXRα): binds more weakly | binding result ([1]; dexamethasone, complex A): binds | binding result ([2]; 50-fold excess cold vs classic GRE wt probe abolishes complex A, label: 32P): binds

AGCTACGCGAGATGACGATAGCT / AGCTATCGTCGTCTCGCGTAGCT [Classic GRE mut]
binding result ([2]; 50-fold excess cold vs classic GRE wt probe, complex A): no binding

AGCTGGTACAAACTGTTCTAGCT (double strand) [Classic GRE wt]
binding result ([1]; dexamethasone + GW3965, with or without LXRα/RXRα): binds more weakly | binding result ([1]; dexamethasone + recombinant LXRα/RXRα (dose-dependent decrease of complex A)): binds more weakly | binding result ([2]; 50-fold excess cold abolishes complex A, label: 32P): binds | binding result [3]: binds

GCACTACGCGGAAGGACTACCAAGTTAATAATT (double strand) [G6Pase GRE mut]
binding result ([2]; 50-fold excess cold vs G6Pase GRE wt probe, complex A): no binding

For at least one entry, the source does not settle the construct or the ends of the probe. Where cells or extracts were used, other partners may take part. For part of these data: No signal at the amounts used counts as a negative. Tags and fusion partners may be left off the protein sequences shown. For part of these data: The comparison behind a weaker result is the experiment's own reference, which may not be listed here.
